The assay in a line: qHTS Assay for Modulators of Lamin A Splicing. Conditions: HeLa LMNA splicing GFP/RFP minigene ratio, 48 h. The procedure, abridged:
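S3 HeLa cells stably expressing lamin A-EGFP splicing minigene plus DsRed2, 600 cells/well, 48 h compound exposure at 37C. Laser-scanning cytometry; analysed as GFP (500-530 nm)/RFP (575-640 nm) total intensity ratio; 0.5% DMSO vehicle.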

Setting [1] is: measured here: GFP splicing reporter channel.
Where [2] appears, read: measured here: RFP viability control channel.

The other results are listed elsewhere or left out. These are further read-outs of the screen, such as a control signal, another cell line or another target. No call is given for them. Compounds called inactive in the main read-out are mostly missing here. Potencies come from curve fits of mixed quality, noted in brackets.

The AC50 is the midpoint of the concentration-response curve, whichever way the signal moves. In the case of `CC1CCCc2sc3nc(NCc4ccco4)n4ncnc4c3c21` (configuration not stated), the AC50 is, setting by setting: under setting [1], 35.5 µM [rising, single point]; under setting [2], 35.5 µM [rising, single point].

Regarding `COc1ccc2oc(=O)c(-c3cn4c(n3)sc3cc(OC)ccc34)cc2c1`, the AC50 under setting [1] is 0.282 µM [falling, partial curve].

Regarding `CN(C)c1ccc(N=Cc2ccco2)cc1`, the AC50 under setting [1] was 12.6 µM [rising, partial curve, poor fit].

With `Cc1ccc(C(=O)NCCNC(=O)c2ccccc2)cc1`, the AC50 under setting [1] was 0.0398 µM [falling, full curve, poor fit] and the AC50 under setting [2] is 8.91 µM [falling, partial curve, poor fit].

As to `Cc1ccsc1/C=N/Nc1nc(=O)[nH]nc1C`, the AC50 under setting [1] is 35.5 µM [falling, single point].

As for `Cc1ccccc1-c1n[nH]c(=S)n1/N=C/c1c(C)nn(-c2ccccc2)c1C`, under setting [2], the AC50 is 12.6 µM [rising, partial curve].

On to `Cc1noc(C)c1-c1nc(NCc2ccccc2)c2ccccc2n1`, for which the AC50 is, setting by setting: under setting [1], 11.2 µM [falling, partial curve]; under setting [2], 12.6 µM [falling, single point].

Regarding `O=C(NCC(c1ccc2c(c1)OCO2)N1CCOCC1)C(=O)Nc1ccc(F)cc1F` (configuration not stated), the AC50 under setting [1] was 0.891 µM [falling, full curve].

For the compound `CSc1nc(Cc2ccccc2)nc2ccccc12`, the AC50 under setting [1] was 6.31 µM [rising, single point].

`COc1ccc(N(Cc2cccs2)C(=O)c2ccc(C(C)(C)C)cc2)cc1`: the AC50 under setting [1] is 17.8 µM [rising, partial curve, poor fit] and the AC50 under setting [2] was 35.5 µM [rising, single point].

For `FC(F)(F)c1ccccc1-c1nc(Nc2ccncc2)c2ccccc2n1`, the AC50 under setting [1] is 20 µM [falling, partial curve].

In the case of `CCNC(=S)NNC(=O)c1cc(-c2cccc(C)c2)nc2ccccc12`, the AC50 is 8.91 µM [rising, partial curve] under setting [1] and 15.8 µM [rising, partial curve] under setting [2].

For `O=C(CNC(=O)c1ccc(Cl)cc1)N/N=C/C=C/c1ccccc1`, the AC50 under setting [2] was 0.0794 µM [rising, full curve, poor fit].

For the compound `O=C(Cn1cnc2c(oc3ccccc32)c1=O)Nc1ccc(OC(F)(F)F)cc1`, the AC50 was 0.355 µM [rising, full curve] under setting [1] and 1 µM [rising, full curve] under setting [2].

On to `Cc1[nH]n(-c2ccccc2)c(=O)c1/C=N/NC(=O)c1ccoc1C`, for which the half-maximal activity concentration (AC50) under setting [1] was 6.31 µM [rising, full curve, poor fit] and the AC50 under setting [2] was 7.08 µM [rising, full curve, poor fit].

Regarding `COc1ccccc1CNC(=O)Cc1csc2nc(-c3ccccc3)cn12`, under setting [1], the AC50 is 6.31 µM [falling, single point].

Regarding `CCc1ccc(C(=O)NC(=S)Nc2ccc3c(c2)OCCO3)cc1`, the half-maximal activity concentration (AC50) under setting [2] was 35.5 µM [rising, single point].

Take `O=C(COC(=O)c1cc([N+](=O)[O-])ccc1NCCO)c1ccc(Cl)cc1`: the AC50 under setting [2] is 22.4 µM [rising, single point].

For `COc1ccc(OC)c(NC(=O)[C@@H]2CCCN2C(=O)c2cccs2)c1`, the AC50 under setting [2] is 5.62 µM [rising, single point].

As for `O=C(CCC1N=C2c3ccccc3N=C(SCc3ccccc3F)N2C1=O)NCCc1ccccc1` (configuration not stated), under setting [2], the half-maximal activity concentration (AC50) is 6.31 µM [falling, single point].

Consider `CN(c1ccccc1)S(=O)(=O)c1cccc(NC(=O)CSc2nnc(N)s2)c1`, for which the AC50 under setting [2] is 12.6 µM [rising, partial curve].

`O=C(O)c1cn(-c2ccc(F)cc2)c(=O)c2ccccc12`: the AC50 under setting [1] was 0.178 µM [falling, full curve, poor fit].

Turning to `COc1cccc(-c2ccc3ncnc(NCc4cnc(C)cn4)c3c2)c1`, the AC50 under setting [1] is 8.91 µM [falling, partial curve] and the AC50 under setting [2] was 7.08 µM [falling, partial curve].

As for `CC1CCC(C(C)C)C(OC(=O)Cn2c(-c3ccc(Br)cc3)[n+](C)c3ccccc32)C1` (configuration not stated), the AC50 by setting is: under setting [1], 25.1 µM [falling, partial curve, poor fit]; under setting [2], 35.5 µM [falling, single point].

For `Cc1oc(CC(C)C)cc1C(=O)Nc1cccc2ccccc12`, the half-maximal activity concentration (AC50) runs as follows: under setting [1], 35.5 µM [falling, single point]; under setting [2], 35.5 µM [falling, single point].

For `CCCCNC(=O)C1CC(c2c(Cl)cccc2Cl)=NO1` (configuration not stated), the AC50 under setting [2] was 17.8 µM [rising, single point].

Consider `COc1ccc(C)cc1NC(=O)CSc1nnc(COc2ccccc2)n1Cc1ccco1`, for which the AC50 was 20 µM [rising, single point] under setting [1] and 22.4 µM [rising, single point] under setting [2].

On to `COc1ccccc1-c1nc(SCc2ccccn2)n[nH]1`, for which, under setting [2], the AC50 is 35.5 µM [rising, single point].

For `COCc1c(C(=O)OCC(=O)c2c(N)n(CC(C)C)c(=O)n(C)c2=O)oc2ccccc12`, the concentration at half-maximal activity (AC50) under setting [2] was 4.47 µM [rising, partial curve].

Regarding `O=C(CSc1nc2ccccc2c(=O)n1Cc1ccco1)c1ccc(F)cc1`, the AC50 under setting [2] was 12.6 µM [rising, partial curve].

As for `Cc1ccc(NC(=O)c2ocnc2C)cc1Cl`, under setting [2], the AC50 was 0.282 µM [falling, full curve, poor fit].

Take `Clc1ccc(CN(Cc2ccc(Cl)cc2)c2nn[nH]n2)cc1`: the AC50 is 0.00355 µM [falling, full curve, poor fit] under setting [1] and 0.01 µM [rising, full curve, poor fit] under setting [2].

Take `CCOc1cc(CNCCc2ccc(S(N)(=O)=O)cc2)cc(Cl)c1OCc1ccccc1`: the AC50 under setting [1] is 10 µM [falling, single point].

Consider `Fc1ccc(Nc2ncnc3ccc(-c4ccoc4)cc23)cc1`, for which the AC50 was 20 µM [falling, partial curve] under setting [1] and 17.8 µM [falling, partial curve] under setting [2].

Regarding `O=C(NCCNc1ccc([N+](=O)[O-])cc1C(F)(F)F)c1ccccc1`, under setting [2], the AC50 was 31.6 µM [rising, single point].

`Nc1c2c(nc3ccccc13)N(c1ccccc1)CC2`: the concentration at half-maximal activity (AC50) under setting [2] is 35.5 µM [rising, single point].

On to `O=c1oc2cc(O)ccc2c2oc3cc(O)ccc3c12`, for which, under setting [2], the AC50 is 14.1 µM [rising, single point].

On to `Cc1cc(S(=O)(=O)N2CCN(c3c(C)cccc3C)CC2)ccc1F`, for which, under setting [2], the AC50 is 20 µM [rising, single point].

Take `CCOc1cccc2cc(-c3cn4cc(C)ccc4n3)c(=O)oc12`: the half-maximal activity concentration (AC50) under setting [2] was 2.82 µM [falling, full curve].

Regarding `C=CCN1C(c2cccc(C(F)(F)F)c2)=CS/C1=C(/C#N)c1nnc(N2CCOCC2)n1-c1ccccc1`, the half-maximal activity concentration (AC50) was 31.6 µM [rising, single point] under setting [1] and 31.6 µM [rising, single point] under setting [2].

Regarding `CN1C(=O)/C(=C/C=C2\SCCN2C)N(C)C1=S`, the AC50 reads like this: under setting [1], 0.224 µM [rising, partial curve, poor fit]; under setting [2], 20 µM [rising, single point].

Turning to `C=C(C)C1CC=C(C)/C(=N/NC(=O)c2cccc([N+](=O)[O-])c2)C1` (configuration not stated), the AC50 runs as follows: under setting [1], 35.5 µM [rising, single point]; under setting [2], 35.5 µM [rising, single point].

For `CCN(CC)C(=O)CSc1nc2c(sc(=S)n2-c2ccccc2)c(=O)n1Cc1ccco1`, the AC50 under setting [2] was 35.5 µM [rising, single point].

`O=C(Nc1cccc(Cl)c1)c1ccc2nc(CCc3ccccc3)oc2c1`: the AC50 under setting [1] was 1.12 µM [falling, full curve, poor fit].

Take `O=C(NCc1ccc(Cl)cc1)c1ccc(COCC(F)(F)F)o1`: the AC50 runs as follows: under setting [1], 35.5 µM [rising, single point]; under setting [2], 35.5 µM [rising, single point].

Regarding `CCCn1c2ccccc2c2cnn(CC(=O)NCc3ccccc3Cl)c(=O)c21`, the AC50 was 0.0224 µM [falling, full curve] under setting [1] and 0.1 µM [falling, full curve] under setting [2].

As to `Cc1ccccc1-c1cc(NCc2ccccc2)ncn1`, the concentration at half-maximal activity (AC50) under setting [1] is 14.1 µM [falling, partial curve].

`Cc1n[nH]c(C)c1C(=O)CC1(O)C(=O)N(CCc2ccccc2)c2ccc(Cl)cc21` (configuration not stated): the AC50 is 11.2 µM [rising, partial curve] under setting [1] and 10 µM [rising, partial curve] under setting [2].

`Cc1nn(CC(=O)OCC(=O)NC(C)c2ccccc2)c(C)c1[N+](=O)[O-]` (configuration not stated): the AC50 was 3.55 µM [falling, partial curve] under setting [1] and 3.98 µM [falling, single point] under setting [2].

As to `COc1ccc2nc(NC(=O)Nc3ccccc3)sc2c1`, the AC50 under setting [2] was 35.5 µM [rising, single point].

With `COc1cc(OC)c(NC(=O)C2CCN(C(=O)c3sc4nc[nH]c(=O)c4c3C)CC2)cc1Cl`, the AC50 was 1.41 µM [falling, full curve, poor fit] under setting [1] and 1.41 µM [falling, full curve, poor fit] under setting [2].

Turning to `COc1cccc2cc(C(C)N(CCCN3CCOCC3)C(=S)Nc3cc(C)cc(C)c3)oc12` (configuration not stated), under setting [1], the AC50 is 35.5 µM [falling, single point].

`CC(=O)Oc1ccc2cc(-c3nc4ccccc4n3C)c(=O)oc2c1`: the AC50 under setting [1] was 17.8 µM [rising, single point].

As to `COC(=O)[C@@]1(Cc2ccc(OC)cc2)[C@H]2c3cc(C(=O)N4CCCC4)n(Cc4ccc(OC)c(OC)c4)c3C[C@H]2CN1C(=O)c1ccccc1`, the AC50 runs as follows: under setting [1], 15.8 µM [rising, partial curve]; under setting [2], 17.8 µM [rising, partial curve].

For `N#C/C(=C/c1ccc(Sc2nc3ccccc3[nH]2)o1)c1cccc(Br)c1`, the AC50 under setting [2] is 12.6 µM [rising, single point].
